# The other results are listed elsewhere or left out.
# Protein sequences, listed by entry. Tags and fused reporters are not part of them. Lines headed by an entry give the natural chain unless they say otherwise; changes in a name come on top.
# UniProt Q9NXC2: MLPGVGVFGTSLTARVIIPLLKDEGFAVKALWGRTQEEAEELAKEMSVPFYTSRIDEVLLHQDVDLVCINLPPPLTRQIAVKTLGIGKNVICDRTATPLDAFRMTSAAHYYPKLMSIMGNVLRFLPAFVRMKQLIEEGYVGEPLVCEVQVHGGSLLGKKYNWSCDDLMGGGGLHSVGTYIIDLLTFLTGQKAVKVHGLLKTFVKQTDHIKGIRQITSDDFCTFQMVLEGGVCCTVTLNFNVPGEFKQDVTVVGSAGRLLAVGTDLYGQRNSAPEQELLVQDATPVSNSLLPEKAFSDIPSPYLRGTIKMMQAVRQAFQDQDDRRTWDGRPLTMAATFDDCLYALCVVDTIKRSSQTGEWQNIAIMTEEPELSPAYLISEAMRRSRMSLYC
# UniProt Q8WTR4: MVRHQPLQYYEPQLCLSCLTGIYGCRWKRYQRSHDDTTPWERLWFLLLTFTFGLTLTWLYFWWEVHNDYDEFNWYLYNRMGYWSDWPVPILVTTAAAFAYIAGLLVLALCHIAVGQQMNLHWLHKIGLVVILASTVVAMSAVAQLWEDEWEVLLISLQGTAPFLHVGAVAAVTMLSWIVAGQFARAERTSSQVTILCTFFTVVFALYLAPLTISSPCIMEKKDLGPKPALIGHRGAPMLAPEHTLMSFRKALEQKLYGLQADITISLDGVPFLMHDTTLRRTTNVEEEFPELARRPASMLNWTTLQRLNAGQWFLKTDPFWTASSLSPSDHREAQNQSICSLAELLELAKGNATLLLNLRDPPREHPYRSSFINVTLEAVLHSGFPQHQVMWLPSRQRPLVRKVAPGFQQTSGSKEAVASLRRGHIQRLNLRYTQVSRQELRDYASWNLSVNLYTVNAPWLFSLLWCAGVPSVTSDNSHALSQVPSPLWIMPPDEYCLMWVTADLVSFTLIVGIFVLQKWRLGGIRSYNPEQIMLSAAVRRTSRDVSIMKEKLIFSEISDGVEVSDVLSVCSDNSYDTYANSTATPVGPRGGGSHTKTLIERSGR
# FOXO3B, A0A2Z4LIS9, UniProt A0A2Z4LIS9, whole entry, looked up: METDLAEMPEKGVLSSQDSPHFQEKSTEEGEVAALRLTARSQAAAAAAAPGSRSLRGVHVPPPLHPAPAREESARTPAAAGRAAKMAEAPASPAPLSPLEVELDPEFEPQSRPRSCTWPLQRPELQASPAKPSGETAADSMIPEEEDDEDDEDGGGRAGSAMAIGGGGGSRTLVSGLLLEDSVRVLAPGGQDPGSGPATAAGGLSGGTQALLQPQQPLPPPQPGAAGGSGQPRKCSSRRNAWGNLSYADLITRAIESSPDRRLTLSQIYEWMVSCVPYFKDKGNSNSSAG
# UniProt P27469: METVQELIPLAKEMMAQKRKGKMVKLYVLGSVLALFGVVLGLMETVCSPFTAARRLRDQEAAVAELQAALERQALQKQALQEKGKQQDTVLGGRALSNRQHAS
# UniProt P24522: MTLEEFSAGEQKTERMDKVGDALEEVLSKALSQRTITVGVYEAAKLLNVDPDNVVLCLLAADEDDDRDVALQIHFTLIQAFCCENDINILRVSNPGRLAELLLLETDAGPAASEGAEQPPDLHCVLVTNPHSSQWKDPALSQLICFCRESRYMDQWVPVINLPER
# UniProt Q9UM11, whole entry, looked up: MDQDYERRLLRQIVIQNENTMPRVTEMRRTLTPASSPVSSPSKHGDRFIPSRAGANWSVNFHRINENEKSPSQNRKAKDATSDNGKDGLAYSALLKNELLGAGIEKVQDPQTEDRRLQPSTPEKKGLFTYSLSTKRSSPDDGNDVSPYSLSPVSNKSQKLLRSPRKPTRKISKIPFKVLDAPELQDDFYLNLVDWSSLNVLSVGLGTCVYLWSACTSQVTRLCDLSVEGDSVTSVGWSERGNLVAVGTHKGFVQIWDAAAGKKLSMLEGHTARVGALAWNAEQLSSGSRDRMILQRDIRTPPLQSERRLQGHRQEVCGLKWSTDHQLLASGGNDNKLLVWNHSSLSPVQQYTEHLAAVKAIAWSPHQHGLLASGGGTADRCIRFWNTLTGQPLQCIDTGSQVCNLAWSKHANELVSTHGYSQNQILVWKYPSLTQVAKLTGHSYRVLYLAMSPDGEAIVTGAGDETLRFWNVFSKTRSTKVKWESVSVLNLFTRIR
# UniProt Q13467, whole entry, looked up: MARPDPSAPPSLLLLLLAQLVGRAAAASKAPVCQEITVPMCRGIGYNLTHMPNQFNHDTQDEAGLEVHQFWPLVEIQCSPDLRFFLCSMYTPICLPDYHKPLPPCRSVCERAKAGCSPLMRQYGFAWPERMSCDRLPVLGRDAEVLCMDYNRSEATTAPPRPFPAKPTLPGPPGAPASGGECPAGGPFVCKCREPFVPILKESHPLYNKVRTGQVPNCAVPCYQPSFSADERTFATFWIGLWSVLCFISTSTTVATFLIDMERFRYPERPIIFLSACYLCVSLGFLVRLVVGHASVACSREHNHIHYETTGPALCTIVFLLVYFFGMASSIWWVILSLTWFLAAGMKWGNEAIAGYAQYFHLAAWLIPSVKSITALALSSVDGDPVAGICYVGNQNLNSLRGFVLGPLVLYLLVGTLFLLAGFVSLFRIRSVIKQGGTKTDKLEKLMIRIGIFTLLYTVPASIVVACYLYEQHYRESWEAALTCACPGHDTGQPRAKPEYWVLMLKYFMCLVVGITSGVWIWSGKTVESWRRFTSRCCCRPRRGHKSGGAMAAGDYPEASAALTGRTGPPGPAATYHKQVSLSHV
# UniProt O75879: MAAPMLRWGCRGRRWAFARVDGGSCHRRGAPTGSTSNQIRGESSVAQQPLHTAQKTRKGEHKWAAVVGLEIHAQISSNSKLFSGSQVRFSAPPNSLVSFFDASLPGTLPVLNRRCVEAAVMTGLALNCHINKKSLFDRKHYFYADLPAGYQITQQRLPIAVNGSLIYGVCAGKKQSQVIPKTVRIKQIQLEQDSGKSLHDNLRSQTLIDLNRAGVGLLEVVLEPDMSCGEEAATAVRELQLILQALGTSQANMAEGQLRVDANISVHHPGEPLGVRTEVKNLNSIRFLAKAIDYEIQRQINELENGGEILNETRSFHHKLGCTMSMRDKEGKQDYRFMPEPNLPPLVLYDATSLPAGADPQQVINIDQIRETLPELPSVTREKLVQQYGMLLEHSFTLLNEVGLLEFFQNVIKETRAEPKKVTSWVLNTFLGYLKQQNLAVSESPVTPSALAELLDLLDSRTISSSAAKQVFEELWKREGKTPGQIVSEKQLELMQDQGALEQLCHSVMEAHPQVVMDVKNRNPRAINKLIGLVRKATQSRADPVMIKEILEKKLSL
# UniProt P19526, whole entry, looked up: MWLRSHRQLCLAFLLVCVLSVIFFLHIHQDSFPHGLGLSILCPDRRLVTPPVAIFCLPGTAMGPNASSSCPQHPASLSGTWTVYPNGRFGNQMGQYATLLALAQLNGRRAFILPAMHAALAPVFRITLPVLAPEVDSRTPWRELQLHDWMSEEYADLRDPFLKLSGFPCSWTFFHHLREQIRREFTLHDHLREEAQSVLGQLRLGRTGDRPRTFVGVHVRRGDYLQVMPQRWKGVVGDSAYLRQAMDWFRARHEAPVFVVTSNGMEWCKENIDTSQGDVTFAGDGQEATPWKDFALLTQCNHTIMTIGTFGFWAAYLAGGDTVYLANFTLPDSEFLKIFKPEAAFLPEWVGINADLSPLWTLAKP
# UniProt Q8TAK5: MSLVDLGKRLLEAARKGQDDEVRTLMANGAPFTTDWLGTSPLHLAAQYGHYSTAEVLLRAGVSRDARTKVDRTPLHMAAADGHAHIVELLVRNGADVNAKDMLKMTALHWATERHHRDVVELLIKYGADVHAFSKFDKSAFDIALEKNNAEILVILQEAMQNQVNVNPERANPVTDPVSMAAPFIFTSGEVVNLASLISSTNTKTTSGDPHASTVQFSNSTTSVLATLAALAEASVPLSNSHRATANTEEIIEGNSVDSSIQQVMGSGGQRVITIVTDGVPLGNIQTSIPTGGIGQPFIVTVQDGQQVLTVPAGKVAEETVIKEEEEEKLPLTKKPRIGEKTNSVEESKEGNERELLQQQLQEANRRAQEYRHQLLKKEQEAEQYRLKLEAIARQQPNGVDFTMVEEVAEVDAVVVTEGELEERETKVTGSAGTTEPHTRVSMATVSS
# UniProt P50440: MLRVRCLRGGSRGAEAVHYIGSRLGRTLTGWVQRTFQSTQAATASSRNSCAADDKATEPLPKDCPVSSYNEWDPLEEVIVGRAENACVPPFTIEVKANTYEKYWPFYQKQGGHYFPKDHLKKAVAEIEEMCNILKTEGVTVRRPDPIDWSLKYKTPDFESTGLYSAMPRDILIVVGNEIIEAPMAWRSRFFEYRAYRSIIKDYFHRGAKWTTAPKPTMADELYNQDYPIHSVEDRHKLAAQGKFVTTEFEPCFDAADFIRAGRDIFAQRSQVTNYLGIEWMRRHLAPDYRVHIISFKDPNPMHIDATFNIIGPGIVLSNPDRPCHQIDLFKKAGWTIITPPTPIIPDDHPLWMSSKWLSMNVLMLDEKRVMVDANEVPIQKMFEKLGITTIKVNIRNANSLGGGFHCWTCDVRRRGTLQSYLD
# UniProt O14926: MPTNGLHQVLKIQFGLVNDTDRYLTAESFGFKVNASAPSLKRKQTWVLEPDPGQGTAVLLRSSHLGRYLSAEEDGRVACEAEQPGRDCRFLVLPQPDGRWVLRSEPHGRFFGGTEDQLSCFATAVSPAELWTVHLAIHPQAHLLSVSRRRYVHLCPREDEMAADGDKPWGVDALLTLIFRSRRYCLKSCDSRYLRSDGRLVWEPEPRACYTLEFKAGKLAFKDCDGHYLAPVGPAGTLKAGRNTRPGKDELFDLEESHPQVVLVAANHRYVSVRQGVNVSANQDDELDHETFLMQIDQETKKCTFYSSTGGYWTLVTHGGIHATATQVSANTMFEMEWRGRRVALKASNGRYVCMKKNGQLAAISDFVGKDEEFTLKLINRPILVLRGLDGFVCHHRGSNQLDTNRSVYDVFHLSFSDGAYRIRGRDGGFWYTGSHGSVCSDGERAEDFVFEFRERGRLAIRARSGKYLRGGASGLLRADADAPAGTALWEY
# UniProt Q8N4A0: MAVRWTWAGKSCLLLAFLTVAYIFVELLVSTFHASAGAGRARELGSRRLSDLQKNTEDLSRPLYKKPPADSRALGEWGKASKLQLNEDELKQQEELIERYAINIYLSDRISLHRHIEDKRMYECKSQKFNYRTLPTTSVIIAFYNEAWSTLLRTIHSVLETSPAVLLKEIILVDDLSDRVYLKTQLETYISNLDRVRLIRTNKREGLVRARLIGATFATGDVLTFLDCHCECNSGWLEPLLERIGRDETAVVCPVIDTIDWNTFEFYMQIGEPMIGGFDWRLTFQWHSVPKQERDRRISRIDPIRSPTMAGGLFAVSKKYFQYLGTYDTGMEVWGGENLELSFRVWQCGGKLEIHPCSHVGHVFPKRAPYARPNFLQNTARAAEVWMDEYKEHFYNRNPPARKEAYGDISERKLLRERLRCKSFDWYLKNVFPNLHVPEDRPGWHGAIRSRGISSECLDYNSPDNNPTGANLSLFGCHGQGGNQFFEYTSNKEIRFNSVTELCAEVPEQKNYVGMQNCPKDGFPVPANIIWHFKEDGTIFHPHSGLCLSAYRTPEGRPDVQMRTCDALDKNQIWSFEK
# UniProt Q92837: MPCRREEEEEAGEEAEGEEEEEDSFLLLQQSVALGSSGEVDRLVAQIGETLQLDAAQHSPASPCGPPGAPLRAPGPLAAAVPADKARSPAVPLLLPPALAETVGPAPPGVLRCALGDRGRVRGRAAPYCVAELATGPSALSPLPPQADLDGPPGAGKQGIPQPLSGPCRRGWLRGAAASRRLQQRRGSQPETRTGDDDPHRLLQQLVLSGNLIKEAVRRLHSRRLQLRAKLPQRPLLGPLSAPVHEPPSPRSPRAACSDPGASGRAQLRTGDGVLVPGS
# UniProt Q9H840: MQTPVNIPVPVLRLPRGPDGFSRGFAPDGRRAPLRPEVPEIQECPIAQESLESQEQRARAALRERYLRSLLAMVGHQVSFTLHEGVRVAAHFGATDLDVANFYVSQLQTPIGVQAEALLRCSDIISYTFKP
# UniProt P98177: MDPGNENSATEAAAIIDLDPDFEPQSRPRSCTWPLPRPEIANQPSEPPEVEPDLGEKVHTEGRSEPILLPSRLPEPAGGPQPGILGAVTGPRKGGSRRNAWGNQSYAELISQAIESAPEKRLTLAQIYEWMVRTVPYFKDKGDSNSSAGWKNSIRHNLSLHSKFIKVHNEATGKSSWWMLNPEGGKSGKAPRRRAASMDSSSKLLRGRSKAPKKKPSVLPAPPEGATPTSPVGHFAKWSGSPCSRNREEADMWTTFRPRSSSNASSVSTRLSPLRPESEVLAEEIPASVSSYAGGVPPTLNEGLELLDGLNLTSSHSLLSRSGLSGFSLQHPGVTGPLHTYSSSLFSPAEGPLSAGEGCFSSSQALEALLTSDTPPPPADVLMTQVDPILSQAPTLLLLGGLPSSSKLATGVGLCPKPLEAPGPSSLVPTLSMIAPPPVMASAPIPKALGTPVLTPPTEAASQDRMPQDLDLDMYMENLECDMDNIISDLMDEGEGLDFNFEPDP
# Experiments:
# Assay in all cases: log2 fold change, soluble protein after heating vs DMSO (PISA); higher = thermal stabilisation; K562 lysate, 10 uM; active = over 0.2 and 3.5 SD of the protein, either way, in both replicates (recomputed)
# [1] = compound: C#Cc1cccc(Nc2ncnc3cc(OCCOC)c(OCCOC)cc23)c1 [erlotinib]
# Method in brief: (§1)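 K562 pellets were dounce-homogenised in PBS pH 7.4 containing 1 mM MgCl2, and the crude extract, at 1 mg/mL protein, was exposed to 10 μM compound for 30 min. Aliquots were heated for 3 min across 48°C-58°C, pooled, brought to 0.5% NP-40 at 4°C and spun at 21,000xg for 90 min, with the supernatant taken as soluble protein. TMTpro 16plex LC-MS/MS with equalised channel sums quantified that protein. Values are log-two fold changes in thermal stability relative to solvent controls, taken from duplicates.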
# [2] = compound: C1=CC(=CC=C1C2=NC3=C(N2)C=C(C=C3)C(=O)N)OC4=CC=C(C=C4)Cl
# Method in brief: as §1
# [3] = compound: C1=CC=C(C=C1)C2=NC(=C(N2)C3=CC=NC=C3)C4=CC(=C(C=C4)Cl)O
# Method in brief: as §1
# [4] = compound: C1COCCN1CCN2C3=CC=CC=C3N=C2NC(=O)C4=CC(=CC=C4)[N+](=O)[O-] [IRAK-1-4 Inhibitor I]
# Method in brief: as §1
# [5] = compound: CC(=O)c1cnc2ccc(-c3cc(Cl)c(O)c(Cl)c3)nc2c1N[C@H]1CC[C@H](CN(C)C)CC1
# Method in brief: as §1
# [6] = compound: CC(C)(C)Cn1c(N)nc2ccc(-c3[nH]c(C(C)(C)C)nc3-c3ccc(F)cc3)nc21 [ralimetinib]
# Method in brief: as §1
# [7] = compound: CC(C)(O)CC(=O)NCCn1ccc2ncnc(Nc3ccc(Oc4cccc(C(F)(F)F)c4)c(Cl)c3)c21
# Method in brief: as §1
# [8] = compound: CC(C)C1=C2N=C(C=C(N2N=C1)NCC3=CC=CC=C3)NCCCCCCN
# Method in brief: as §1
# [9] = compound: CC1=C(C=C(C=C1)NC(=O)C2=CC(=CC=C2)N(C)C)NC(=O)C3=CC=C(C=C3)O
# Method in brief: as §1
# [10] = compound: CC1=CC=C(C=C1)SC2=C3C=C(SC3=CN=C2)C(=O)N
# Method in brief: as §1
# [11] = compound: C/C(=N\NC(=O)C1=CC(=CC=C1)S(=O)(=O)N2CCOCC2)/C3=C(C=CC(=C3)Cl)O
# Method in brief: as §1
# [12] = compound: C1=CC2=C(C=CC(=C2)/C=C\3/C(=O)NC(=NCC4=CC=CS4)S3)N=C1
# Method in brief: as §1
# [13] = compound: C1=CC=C2C(=C1)C3=NNC4=CC=CC(=C43)C2=O
# Method in brief: as §1
# [14] = compound: CC1=C(C=C(C=C1)NC(=O)C2=CC(=CC=C2)C(C)(C)C#N)NC3=CC4=C(C=C3)N=CN(C4=O)C
# Method in brief: as §1
# [15] = compound: CC1=C(C2=C(C=C1)C(=O)C3=CC=CC=C3N2CCCN)C
# Method in brief: as §1
# [16] = compound: C1CCN(C1)C(=O)NC2=CC=CC(=C2)NC3=NC=C(C(=N3)NCCC4=CN=CN4)Br
# Method in brief: as §1
# [17] = compound: C1CN(CCC1(CC2=CC=C(C=C2)Cl)N)C3=NC=NC4=C3C=CN4
# Method in brief: as §1
# [18] = compound: CC1=C(C(CC(=O)N1)C2=CC=C(C=C2)C(F)(F)F)C(=O)NC3=C(C=C4C(=C3)C=NN4)F
# Method in brief: as §1
# [19] = compound: C1=CC2=NC=CN=C2C=C1/C=C/3\C(=O)NC(=O)S3
# Method in brief: as §1
# [20] = compound: C=CC(=O)N1CCC[C@@H](n2nc(-c3ccc(Oc4ccccc4)cc3)c3c(N)ncnc32)C1 [ibrutinib]
# Method in brief: as §1
target,measurement,setting,value
GFOD1 (UniProt Q9NXC2),log2 fold change,[1],inactive: -0.032
same,log2 fold change,[2],inactive: 0.081
same,log2 fold change,[3],inactive: -0.087
same,log2 fold change,[4],inactive: 0.316
same,log2 fold change,[5],inactive: -0.023
same,log2 fold change,[6],inactive: 0.26
same,log2 fold change,[7],inactive: -0.131
same,log2 fold change,[8],inactive: -0.118
same,log2 fold change,[9],inactive: -0.304
same,log2 fold change,[10],inactive: -0.188
GDPD5 (UniProt Q8WTR4),log2 fold change,[11],inactive: -0.04
same,log2 fold change,[12],inactive: -0.123
same,log2 fold change,[13],inactive: 0.026
same,log2 fold change,[14],inactive: 0.051
"FOXO3B, A0A2Z4LIS9",log2 fold change,[11],inactive: -0.111
same,log2 fold change,[12],inactive: -0.072
same,log2 fold change,[13],inactive: 0.089
same,log2 fold change,[15],inactive: -0.079
G0S2 (UniProt P27469),log2 fold change,[1],inactive: 0.179
same,log2 fold change,[2],inactive: 0.034
same,log2 fold change,[16],inactive: 0.064
same,log2 fold change,[17],inactive: 0.13
same,log2 fold change,[8],inactive: -0.07
same,log2 fold change,[18],inactive: -0.073
same,log2 fold change,[14],inactive: 0.08
GADD45A (UniProt P24522),log2 fold change,[3],inactive: 0.097
same,log2 fold change,[4],inactive: -0.003
same,log2 fold change,[6],inactive: -0.117
same,log2 fold change,[7],inactive: 0.129
same,log2 fold change,[18],inactive: -0.021
same,log2 fold change,[14],inactive: 0.049
same,log2 fold change,[9],inactive: -0.062
FZR1 isoform 2 (UniProt Q9UM11),log2 fold change,[19],inactive: 0.099
same,log2 fold change,[20],inactive: 0.074
FUS (UniProt H3BPE7),log2 fold change,[15],inactive: -0.018
FTSJ1 isoform 2 (UniProt Q9UET6),log2 fold change,[11],inactive: -0.149
same,log2 fold change,[12],inactive: 0.055
same,log2 fold change,[13],inactive: -0.039
same,log2 fold change,[16],inactive: 0.051
same,log2 fold change,[17],inactive: 0.059
same,log2 fold change,[5],inactive: 0.026
same,log2 fold change,[10],inactive: 0.001
FZD5 (UniProt Q13467),log2 fold change,[19],inactive: -0.074
same,log2 fold change,[20],inactive: 0.098
same,log2 fold change,[5],inactive: -0.16
same,log2 fold change,[15],inactive: -0.118
same,log2 fold change,[10],inactive: 0.101
GATB (UniProt O75879),log2 fold change,[11],inactive: 0.356
same,log2 fold change,[12],inactive: -0.107
same,log2 fold change,[3],inactive: -0.034
same,log2 fold change,[13],inactive: 0.037
same,log2 fold change,[4],inactive: -0.009
same,log2 fold change,[5],inactive: -0.144
same,log2 fold change,[6],inactive: 0.031
same,log2 fold change,[7],inactive: -0.019
same,log2 fold change,[18],inactive: -0.105
same,log2 fold change,[15],inactive: 0.05
same,log2 fold change,[9],inactive: 0.116
same,log2 fold change,[10],inactive: -0.025
G3BP2 isoform 2 (UniProt Q9UN86),log2 fold change,[5],inactive: 0
same,log2 fold change,[15],inactive: -0.264
same,log2 fold change,[14],inactive: -0.027
same,log2 fold change,[10],inactive: 0.043
FUT1 (UniProt P19526),log2 fold change,[14],inactive: -0.114
GC isoform 3 (UniProt P02774),log2 fold change,[11],inactive: 0.039
same,log2 fold change,[12],inactive: -0.019
same,log2 fold change,[3],inactive: -0.199
same,log2 fold change,[13],inactive: 0.012
same,log2 fold change,[16],inactive: 0.051
same,log2 fold change,[17],inactive: 0.055
same,log2 fold change,[4],inactive: 0.15
same,log2 fold change,[6],inactive: 0.051
same,log2 fold change,[7],active: -0.559
same,log2 fold change,[15],inactive: -0.148
same,log2 fold change,[14],inactive: -0.087
same,log2 fold change,[9],inactive: -0.101
FZD1 (UniProt Q9UP38),log2 fold change,[3],inactive: 0.041
same,log2 fold change,[4],inactive: -0.059
same,log2 fold change,[6],inactive: 0.001
same,log2 fold change,[7],inactive: -0.005
same,log2 fold change,[18],inactive: 0.045
same,log2 fold change,[14],inactive: 0.001
same,log2 fold change,[9],inactive: -0.096
GARS1 (UniProt H7C443),log2 fold change,[19],inactive: 0.011
same,log2 fold change,[20],inactive: -0.06
same,log2 fold change,[5],inactive: 0.019
same,log2 fold change,[10],inactive: 0.072
FUNDC2 (UniProt H7C0K8),log2 fold change,[11],inactive: 0.315
same,log2 fold change,[12],inactive: 0.079
same,log2 fold change,[19],inactive: -0.152
same,log2 fold change,[13],inactive: -0.049
same,log2 fold change,[20],inactive: 0.325
same,log2 fold change,[5],inactive: -0.07
same,log2 fold change,[18],inactive: -0.068
same,log2 fold change,[10],inactive: -0.064
GABPB2 (UniProt Q8TAK5),log2 fold change,[19],inactive: 0.099
same,log2 fold change,[3],inactive: 0.071
same,log2 fold change,[16],inactive: 0.086
same,log2 fold change,[17],inactive: -0.214
same,log2 fold change,[4],inactive: -0.029
same,log2 fold change,[20],inactive: -0.2
same,log2 fold change,[6],inactive: 0.051
same,log2 fold change,[7],inactive: -0.037
same,log2 fold change,[15],inactive: 0.087
same,log2 fold change,[14],inactive: -0.016
same,log2 fold change,[9],inactive: 0.099
FRAS1 isoform 2 (UniProt Q86XX4),log2 fold change,[11],inactive: -0.119
same,log2 fold change,[12],inactive: -0.022
same,log2 fold change,[13],inactive: 0.039
same,log2 fold change,[15],inactive: -0.033
same,log2 fold change,[14],inactive: 0.264
GATM (UniProt P50440),log2 fold change,[16],inactive: 0.217
same,log2 fold change,[17],inactive: 0.315
FSCN2 isoform 2 (UniProt O14926),log2 fold change,[11],inactive: 0.193
same,log2 fold change,[12],inactive: -0.029
same,log2 fold change,[13],inactive: -0.308
same,log2 fold change,[16],inactive: 0.092
same,log2 fold change,[17],inactive: 0.005
same,log2 fold change,[14],inactive: -0.174
GALNT3 (UniProt Q14435),log2 fold change,[19],inactive: 0.012
same,log2 fold change,[16],inactive: -0.013
same,log2 fold change,[17],inactive: 0.079
same,log2 fold change,[20],inactive: 0.165
same,log2 fold change,[14],inactive: -0.092
FPGS (UniProt Q05932),log2 fold change,[3],inactive: -0.066
same,log2 fold change,[16],inactive: 0.123
same,log2 fold change,[17],inactive: 0.043
same,log2 fold change,[4],inactive: 0.065
same,log2 fold change,[6],inactive: 0.026
same,log2 fold change,[7],inactive: 0.039
same,log2 fold change,[18],inactive: 0.039
same,log2 fold change,[15],inactive: -0.152
same,log2 fold change,[9],inactive: -0.089
GAGE1 (UniProt Q13065),log2 fold change,[19],inactive: 0.126
same,log2 fold change,[3],inactive: 0.137
same,log2 fold change,[16],inactive: 0.029
same,log2 fold change,[17],inactive: 0.336
same,log2 fold change,[4],inactive: -0.003
same,log2 fold change,[20],inactive: -0.013
same,log2 fold change,[5],inactive: -0.016
same,log2 fold change,[6],inactive: 0.023
same,log2 fold change,[7],inactive: -0.16
same,log2 fold change,[9],inactive: -0.238
same,log2 fold change,[10],inactive: 0.02
GART (UniProt C9JZG2),log2 fold change,[19],inactive: 0.092
same,log2 fold change,[3],inactive: 0.007
same,log2 fold change,[16],inactive: -0.025
same,log2 fold change,[17],inactive: -0.011
same,log2 fold change,[4],inactive: 0.078
same,log2 fold change,[20],inactive: -0.062
same,log2 fold change,[5],inactive: 0.037
same,log2 fold change,[6],inactive: 0.069
same,log2 fold change,[7],inactive: -0.068
same,log2 fold change,[18],inactive: -0.114
same,log2 fold change,[14],inactive: 0.083
same,log2 fold change,[9],inactive: -0.052
same,log2 fold change,[10],inactive: 0.022
GALNT4 (UniProt Q8N4A0),log2 fold change,[11],inactive: 0.011
same,log2 fold change,[12],inactive: -0.062
same,log2 fold change,[19],inactive: -0.107
same,log2 fold change,[13],inactive: 0.014
same,log2 fold change,[16],inactive: -0.071
same,log2 fold change,[17],inactive: 0.086
same,log2 fold change,[20],inactive: 0.039
same,log2 fold change,[5],inactive: 0.113
same,log2 fold change,[15],inactive: 0.096
same,log2 fold change,[14],inactive: 0.056
same,log2 fold change,[10],inactive: 0.037
FRAT1 (UniProt Q92837),log2 fold change,[11],inactive: -0.126
same,log2 fold change,[12],inactive: -0.279
same,log2 fold change,[13],inactive: 0.103
same,log2 fold change,[16],inactive: 0.074
same,log2 fold change,[17],inactive: -0.063
same,log2 fold change,[15],inactive: -0.121
GEMIN7 (UniProt Q9H840),log2 fold change,[19],inactive: 0.087
same,log2 fold change,[3],inactive: 0.056
same,log2 fold change,[4],inactive: 0.015
same,log2 fold change,[20],inactive: -0.06
same,log2 fold change,[6],inactive: 0.121
same,log2 fold change,[7],inactive: -0.001
same,log2 fold change,[18],inactive: -0.01
same,log2 fold change,[14],inactive: 0.024
same,log2 fold change,[9],inactive: -0.011
FOXO4 (UniProt P98177),log2 fold change,[19],inactive: -0.108
same,log2 fold change,[20],inactive: -0.086
